Measurements reported in PubChem BioAssay AID1053208 (Peter MacCallum Cancer Centre, 2014).
Aim: 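Genes whose silencing cuts survival of bone tumour cells only with doxorubicin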 (primary screen). Cell system: mouse osteosarcoma cells, early-passage culture from an engineered mouse model of fibroblastic bone tumour. Reagents: siRNA pool against mouse genes, 40 nM. Timing: about 120 h (48 h before drug, then 72 h with drug). Challenge: doxorubicin 100 nM for 72 h, roughly 30-40% inhibitory dose. Measurement: 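Luminescent ATP signal taken as viability with or without 100 nM doxorubicin for 72 h; mean of two wells set against non-targeting siRNA and turned into robust z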. Reading the numbers: viability z-score with doxorubicin: higher = more viable cells under doxorubicin; viability z-score without drug: higher = more viable cells with knock-down alone. Call rule: 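Called active if knock-down leaves viability unchanged without drug (z within -2 to 2) but lowers it with doxorubicin (z at or under -2)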.
The deposit covers about 17,000 reagents; below is an unselected part. 788 of them (4.7%) were called active. 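Calls rest on z-score classes alone; an extra cut-off of viability at most 70% of control was not applied to them.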 Not all columns of the deposit are shown.

Target gene | combined z-score class | viability z-score with doxorubicin | viability z-score without drug | activity call
Or1ad1 (GeneID 258913) | no change with or without drug | 0 | 1.85 | inactive
Gapt (GeneID 238875) | no change with or without drug | -0.79 | 1.18 | inactive
Lrit2 (GeneID 239038) | no change with or without drug | 1.35 | 0.84 | inactive
Gdpd4 (GeneID 233537) | no change with or without drug | -0.56 | 0 | inactive
Foxl2 (GeneID 26927) | no change with or without drug | -0.9 | -0.51 | inactive
Hmg20b (GeneID 15353) | no change with or without drug | -0.34 | -0.51 | inactive
Neurl1a (GeneID 18011) | no change with or without drug | 1.12 | 0.84 | inactive
Msto1 (GeneID 229524) | no change with or without drug | -0.56 | -0.51 | inactive
Rprm (GeneID 67874) | no change with or without drug | 1.12 | -0.17 | inactive
Pigl (GeneID 327942) | no change with or without drug | 0 | 1.85 | inactive
Aplf (GeneID 72103) | no change with or without drug | -0.34 | 0.17 | inactive
Lypd6b (GeneID 71897) | no change with or without drug | -1.8 | 0.84 | inactive
Il22 (GeneID 50929) | no change with or without drug | -1.8 | -1.85 | inactive
Smyd4 (GeneID 319822) | no change with or without drug | -0.79 | -0.84 | inactive
Ebf4 (GeneID 228598) | no change with or without drug | -0.22 | 0.17 | inactive
Snapc4 (GeneID 227644) | no change with or without drug | -1.24 | -1.18 | inactive
Arrdc4 (GeneID 66412) | no change with or without drug | -0.67 | 0.84 | inactive
Sik2 (GeneID 235344) | no change with or without drug | 1.46 | 1.01 | inactive
Traf3ip2 (GeneID 103213) | no change with or without drug | 0.22 | 0.17 | inactive
Mtmr11 (GeneID 194126) | no change with or without drug | -1.57 | -0.84 | inactive
Dtl (GeneID 76843) | low cell count with and without drug | -3.37 | -2.53 | inactive
Tssc4 (GeneID 56844) | no change with or without drug | 1.8 | 1.85 | inactive
Ncoa2 (GeneID 17978) | no change with or without drug | 1.35 | -0.84 | inactive
Tmem26 (GeneID 327766) | no change with or without drug | -1.46 | -0.84 | inactive
Dennd10 (GeneID 67894) | no change with or without drug | -0.34 | 0.67 | inactive
Chd2 (GeneID 244059) | no change with or without drug | -0.9 | -0.34 | inactive
Dvl2 (GeneID 13543) | no change with or without drug | 0.79 | -0.17 | inactive
Szt2 (GeneID 230676) | no change with or without drug | 0.56 | 0.84 | inactive
Rcn1 (GeneID 19672) | no change with or without drug | -0.9 | -0.34 | inactive
Afap1 (GeneID 70292) | no change with or without drug | 0.34 | 0.51 | inactive
H2bc9 (GeneID 319182) | no change with or without drug | 0.56 | 1.85 | inactive
Sdf4 (GeneID 20318) | high cell count without drug only | 1.69 | 3.2 | inactive
Timd4 (GeneID 276891) | no change with or without drug | 0.45 | 1.69 | inactive
Lcn5 (GeneID 13863) | no change with or without drug | 0.11 | 0.51 | inactive
Or4d10c (GeneID 258805) | no change with or without drug | -1.57 | -1.01 | inactive
Ppp2r5d (GeneID 21770) | no change with or without drug | 0 | 0.34 | inactive
Serpina5 (GeneID 268591) | no change with or without drug | 0 | 0.84 | inactive
9630028B13Rik (GeneID 319562) | no change with or without drug | -0.67 | -0.17 | inactive
Foxm1 (GeneID 14235) | no change with or without drug | -0.22 | -0.34 | inactive
Cyp4f14 (GeneID 64385) | no change with or without drug | 0.22 | -0.67 | inactive
Islr (GeneID 26968) | no change with or without drug | -1.57 | -0.51 | inactive
Gcnt3 (GeneID 72077) | no change with or without drug | -0.67 | 0 | inactive
Pla2g2d (GeneID 18782) | no change with or without drug | 1.35 | 0.17 | inactive
Hs6st2 (GeneID 50786) | no change with or without drug | 1.91 | 1.18 | inactive
Speer3 (GeneID 71026) | no change with or without drug | 0.11 | 0.34 | inactive
Kcng4 (GeneID 66733) | no change with or without drug | -0.22 | -0.84 | inactive
Tex261 (GeneID 21766) | no change with or without drug | -0.79 | -1.18 | inactive
H2ax (GeneID 15270) | no change with or without drug | 1.12 | 0.51 | inactive
Rps6kb1 (GeneID 72508) | no change with or without drug | 0.45 | 1.01 | inactive
Zfp7 (GeneID 223669) | high cell count with and without drug | 2.02 | 3.54 | inactive
Atp6v1e2 (GeneID 74915) | no change with or without drug | 0.67 | 0.17 | inactive
Gpx7 (GeneID 67305) | no change with or without drug | 0.9 | -0.17 | inactive
Syn2 (GeneID 20965) | no change with or without drug | 1.24 | 1.69 | inactive
Gusb (GeneID 110006) | no change with or without drug | 1.57 | 0.51 | inactive
Tmem119 (GeneID 231633) | no change with or without drug | 1.57 | 0.84 | inactive
Wnk4 (GeneID 69847) | no change with or without drug | 0.45 | -1.85 | inactive
Ndufa2 (GeneID 17991) | no change with or without drug | 0.9 | -1.18 | inactive
Mmp11 (GeneID 17385) | no change with or without drug | -0.45 | -0.17 | inactive
Dram1 (GeneID 71712) | no change with or without drug | -0.9 | -0.17 | inactive
Psg21 (GeneID 72242) | no change with or without drug | 0 | -1.18 | inactive
Tbc1d14 (GeneID 100855) | no change with or without drug | 1.57 | 0.17 | inactive
Fbxl22 (GeneID 74165) | no change with or without drug | 1.12 | 0.34 | inactive
Sp3os (GeneID 100503849) | no change with or without drug | 0.9 | 1.85 | inactive

Targets above whose gene name starts with G or g (5):
Target gene | combined z-score class | viability z-score with doxorubicin | viability z-score without drug | activity call
Gapt (GeneID 238875) | no change with or without drug | -0.79 | 1.18 | inactive
Gdpd4 (GeneID 233537) | no change with or without drug | -0.56 | 0 | inactive
Gcnt3 (GeneID 72077) | no change with or without drug | -0.67 | 0 | inactive
Gpx7 (GeneID 67305) | no change with or without drug | 0.9 | -0.17 | inactive
Gusb (GeneID 110006) | no change with or without drug | 1.57 | 0.51 | inactive
